Results are given in words; binding and its absence hold for the method and conditions named. Binding seen in cells or lysates may run through a third protein. Some results given as binding are weak or reduced against the parent protein; the word gives no strength.

The chains behind the UniProt entries cited, without tags or fusion partners. Where a name states a change or a piece, a line headed by the entry shows the natural chain unless it says otherwise.
UniProt P20263: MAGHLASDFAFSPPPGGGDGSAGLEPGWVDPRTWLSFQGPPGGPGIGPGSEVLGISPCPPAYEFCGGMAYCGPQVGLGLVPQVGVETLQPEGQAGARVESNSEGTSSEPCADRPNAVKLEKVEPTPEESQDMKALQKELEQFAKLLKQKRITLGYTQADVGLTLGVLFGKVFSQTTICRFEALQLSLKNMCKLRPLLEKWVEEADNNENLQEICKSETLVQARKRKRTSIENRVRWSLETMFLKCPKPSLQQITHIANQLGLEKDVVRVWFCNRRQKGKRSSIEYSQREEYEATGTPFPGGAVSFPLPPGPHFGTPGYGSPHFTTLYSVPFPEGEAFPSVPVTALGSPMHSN
UniProt P48432: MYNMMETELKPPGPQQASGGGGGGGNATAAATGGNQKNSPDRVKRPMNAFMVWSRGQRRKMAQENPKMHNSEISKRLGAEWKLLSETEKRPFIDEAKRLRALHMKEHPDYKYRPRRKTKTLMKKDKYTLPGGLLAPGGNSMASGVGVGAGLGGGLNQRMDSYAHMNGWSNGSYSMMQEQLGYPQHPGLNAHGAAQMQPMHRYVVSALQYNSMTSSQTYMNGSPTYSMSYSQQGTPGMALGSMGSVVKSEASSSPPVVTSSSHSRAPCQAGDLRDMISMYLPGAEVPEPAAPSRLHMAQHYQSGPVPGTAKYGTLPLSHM

Among the data in article PMC3382131 are binding values, retold here.

Experiment [1] concerns the target Oct4 K118R (mouse) (UniProt P20263). Put plainly: co-IP; NIH3T3 cells cotransfected with combinations of Oct4/Oct4 K118R, Sox2/Sox2 K247R, HA-Sumo1 and HA-Ubc9; lysed 48 h later in IP buffer (50 mM Tris-HCl pH 8.0, 150 mM NaCl, 1 mM EDTA, 1% Nonidet P-40, 10% glycerol, 50 mM N-ethylmaleimide); precipitated with anti-Oct4 or anti-Sox2 antibody overnight at 4°C and protein A/G beads; western blot with anti-Sox2 and anti-Oct4. For orientation: Immunoblotting shows a protein as a band on a membrane.

Experiment [2] concerns the target Flag-Tagged Oct4 (mouse) (UniProt P20263). The experiment is described as above.

Turning to Myc-Sox2 (from UniProt P48432 1-319), the binding entry in experiment [1] is reported as “binds”.

Sox2 K247R (from UniProt P48432 1-319): in experiment [2], the binding entry is given as “binds”.
